Measured values from article PMC10787008.
No constants are given. Whether binding was seen depends on the method and setting. In cells and extracts the contact can be indirect. For part of these data: Sequences can lack the tags named with a protein.

Tests used:
[1] = molecular target: T1, Coiled-coil-helix-coiled-coil-helix domain containing 2 (CHCHD2), endogenous in WT hESCs (human (endogenous in H9 hESCs)) (UniProt Q9Y6H1); test: co-IP; CHCHD2 immunoprecipitated from hESC lysates (1 mg total protein, 2 ug antibody, 4 °C 16 h, Protein-A or G agarose, washes in tissue lysis buffer), immunoblot for BCL-xL; WT and CHCHD2 KO hESCs with Bcl-xL-Flag (Fig. 7A) and KO-iC2 hESCs after Dox with Bcl-xL-Flag (Fig. 7B)
T1 sequence: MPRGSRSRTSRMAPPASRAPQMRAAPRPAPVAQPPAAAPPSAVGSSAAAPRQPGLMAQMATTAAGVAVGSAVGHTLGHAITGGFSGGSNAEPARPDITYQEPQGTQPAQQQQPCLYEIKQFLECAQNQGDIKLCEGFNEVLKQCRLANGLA

[2] = molecular target: T2, Flag-tagged (in C-terminal) human CHCHD2, doxycycline-inducible in CHCHD2 KO hESCs (KO-iC2) (human) (UniProt Q9Y6H1); test: as above
T2 sequence: T1 sequence

Row | binding [1] | binding [2] | Substance
1 | no binding | no binding | BCL-xL with FLAG tag, ectopically expressed in hESCs (from UniProt Q07817-1 1-233)
2 | no binding |  | BCL-xL, endogenous in hESCs (from UniProt Q07817-1 1-233)
